Test [1] has as its target tenascin-C (human (endogenous in HRECs)) (UniProt P24821). The experiment in a line: co-IP; lysates of HRECs incubated 72 h with 10 ng/ml IL-13, lysis buffer without SDS (25 mM Tris-HCl, 150 mM NaCl, 1% Triton X-100); precipitated with anti-PN, anti-TNC or anti-FN antibodies (IgG as control) overnight at 4 °C and agarose beads; western blot with anti-PN, anti-TNC and anti-FN. Background: In western blotting, separated proteins are transferred to a membrane and probed.

By UniProt entry, the sequences of proteins in these tests, tags left out. Residues count along the entry.
UniProt P24821, residues 23-2201: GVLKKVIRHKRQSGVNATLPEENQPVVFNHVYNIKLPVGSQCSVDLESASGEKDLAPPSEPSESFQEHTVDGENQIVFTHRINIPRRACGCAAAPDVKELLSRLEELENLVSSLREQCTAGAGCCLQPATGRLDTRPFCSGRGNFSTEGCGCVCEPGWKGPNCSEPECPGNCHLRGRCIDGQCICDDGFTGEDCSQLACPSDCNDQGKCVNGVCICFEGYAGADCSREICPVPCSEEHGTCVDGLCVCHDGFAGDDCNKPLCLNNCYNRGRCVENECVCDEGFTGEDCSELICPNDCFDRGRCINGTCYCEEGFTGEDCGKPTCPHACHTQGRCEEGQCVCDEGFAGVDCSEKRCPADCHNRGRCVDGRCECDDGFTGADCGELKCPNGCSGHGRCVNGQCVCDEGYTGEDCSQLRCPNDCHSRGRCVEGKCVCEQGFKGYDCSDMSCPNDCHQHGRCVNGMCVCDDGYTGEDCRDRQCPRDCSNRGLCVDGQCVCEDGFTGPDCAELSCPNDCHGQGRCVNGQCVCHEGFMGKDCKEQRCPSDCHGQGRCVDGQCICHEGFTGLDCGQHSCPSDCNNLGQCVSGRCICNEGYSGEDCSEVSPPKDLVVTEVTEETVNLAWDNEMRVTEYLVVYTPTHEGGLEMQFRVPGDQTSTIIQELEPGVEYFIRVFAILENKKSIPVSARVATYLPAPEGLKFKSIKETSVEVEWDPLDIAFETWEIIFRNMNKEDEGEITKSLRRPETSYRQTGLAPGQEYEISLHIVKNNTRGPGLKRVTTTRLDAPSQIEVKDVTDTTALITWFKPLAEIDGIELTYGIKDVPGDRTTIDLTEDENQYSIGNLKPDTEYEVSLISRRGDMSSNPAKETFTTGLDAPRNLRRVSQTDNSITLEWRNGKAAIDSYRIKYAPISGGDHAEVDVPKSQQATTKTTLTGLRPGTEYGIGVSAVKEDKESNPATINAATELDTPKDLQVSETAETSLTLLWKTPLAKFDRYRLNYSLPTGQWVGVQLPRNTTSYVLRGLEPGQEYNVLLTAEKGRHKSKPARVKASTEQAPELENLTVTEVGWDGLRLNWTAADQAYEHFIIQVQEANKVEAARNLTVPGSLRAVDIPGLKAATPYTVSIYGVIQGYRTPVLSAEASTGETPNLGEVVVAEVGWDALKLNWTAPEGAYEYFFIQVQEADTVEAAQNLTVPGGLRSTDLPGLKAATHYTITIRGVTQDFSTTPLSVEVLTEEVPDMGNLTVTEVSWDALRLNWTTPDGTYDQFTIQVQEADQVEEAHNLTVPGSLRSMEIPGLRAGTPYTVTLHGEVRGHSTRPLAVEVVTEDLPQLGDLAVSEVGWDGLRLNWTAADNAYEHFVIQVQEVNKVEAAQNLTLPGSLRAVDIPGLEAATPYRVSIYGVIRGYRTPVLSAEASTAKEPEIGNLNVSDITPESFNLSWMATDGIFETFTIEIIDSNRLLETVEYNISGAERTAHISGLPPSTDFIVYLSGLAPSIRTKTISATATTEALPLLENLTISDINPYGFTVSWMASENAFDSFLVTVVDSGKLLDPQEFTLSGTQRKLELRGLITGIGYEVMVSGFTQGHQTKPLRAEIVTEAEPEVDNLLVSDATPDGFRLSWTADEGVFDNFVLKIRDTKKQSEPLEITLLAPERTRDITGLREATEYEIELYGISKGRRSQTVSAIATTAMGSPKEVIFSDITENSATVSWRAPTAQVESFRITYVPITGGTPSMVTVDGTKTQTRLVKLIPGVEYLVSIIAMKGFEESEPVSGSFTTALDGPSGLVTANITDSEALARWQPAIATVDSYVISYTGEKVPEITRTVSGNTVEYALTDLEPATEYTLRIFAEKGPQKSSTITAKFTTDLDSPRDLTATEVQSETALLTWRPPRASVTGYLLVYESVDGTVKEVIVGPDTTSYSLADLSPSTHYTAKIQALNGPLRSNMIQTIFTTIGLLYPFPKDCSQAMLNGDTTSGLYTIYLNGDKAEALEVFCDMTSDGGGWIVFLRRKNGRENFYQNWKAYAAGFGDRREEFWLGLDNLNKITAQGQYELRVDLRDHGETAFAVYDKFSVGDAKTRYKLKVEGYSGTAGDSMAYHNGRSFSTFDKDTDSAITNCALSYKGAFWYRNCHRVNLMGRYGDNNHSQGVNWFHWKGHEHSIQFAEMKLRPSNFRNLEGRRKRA

The target of test [2] is fibronectin (human (endogenous in HRECs)), P02751. The description is as above. The settings on record: remark: other sources report otherwise.

These are yes or no findings as the source states them, for the method shown. Binding seen in cells or lysates may run through a third protein. Some binding calls cover weakened binding; strength is not graded here.

B1: periostin (protein, UniProt Q15063 22-836)
chain: NNHYDKILAHSRIRGRDQGPNVCALQQILGTKKKYFSTCKNWYKKSICGQKTTVLYECCPGYMRMEGMKGCPAVLPIDHVYGTLGIVGATTTQRYSDASKLREEIEGKGSFTYFAPSNEAWDNLDSDIRRGLESNVNVELLNALHSHMINKRMLTKDLKNGMIIPSMYNNLGLFINHYPNGVVTVNCARIIHGNQIATNGVVHVIDRVLTQIGTSIQDFIEAEDDLSSFRAAAITSDILEALGRDGHFTLFAPTNEAFEKLPRGVLERIMGDKVASEALMKYHILNTLQCSESIMGGAVFETLEGNTIEIGCDGDSITVNGIKMVNKKDIVTNNGVIHLIDQVLIPDSAKQVIELAGKQQTTFTDLVAQLGLASALRPDGEYTLLAPVNNAFSDDTLSMDQRLLKLILQNHILKVKVGLNELYNGQILETIGGKQLRVFVYRTAVCIENSCMEKGSKQGRNGAIHIFREIIKPAEKSLHEKLKQDKRFSTFLSLLEAADLKELLTQPGDWTLFVPTNDAFKGMTSEEKEILIRDKNALQNIILYHLTPGVFIGKGFEPGVTNILKTTQGSKIFLKEVNDTLLVNELKSKESDIMTTNGVIHVVDKLLYPADTPVGNDQLLEILNKLIKYIQIKFVRGSTFKEIPVTVYTTKIITKVVEPKIKVIEGSLQPIIKTEGPTLTKVKIEGEPEFRLIKEGETITEVIHGEPIIKKYTKIIDGVPVEITEKETREERIITGPEIKYTRISTGGGETEETLKKLLQEEVTKVTKFIEGGDGHLFEDEEIKRLLQGDTPVRKLQANKKVQGSRRRLREGRSQ
With B1, in test [1], the binding entry was “binds”.

B2: periostin, Q15063 22-836 (protein)
chain: NNHYDKILAHSRIRGRDQGPNVCALQQILGTKKKYFSTCKNWYKKSICGQKTTVLYECCPGYMRMEGMKGCPAVLPIDHVYGTLGIVGATTTQRYSDASKLREEIEGKGSFTYFAPSNEAWDNLDSDIRRGLESNVNVELLNALHSHMINKRMLTKDLKNGMIIPSMYNNLGLFINHYPNGVVTVNCARIIHGNQIATNGVVHVIDRVLTQIGTSIQDFIEAEDDLSSFRAAAITSDILEALGRDGHFTLFAPTNEAFEKLPRGVLERIMGDKVASEALMKYHILNTLQCSESIMGGAVFETLEGNTIEIGCDGDSITVNGIKMVNKKDIVTNNGVIHLIDQVLIPDSAKQVIELAGKQQTTFTDLVAQLGLASALRPDGEYTLLAPVNNAFSDDTLSMDQRLLKLILQNHILKVKVGLNELYNGQILETIGGKQLRVFVYRTAVCIENSCMEKGSKQGRNGAIHIFREIIKPAEKSLHEKLKQDKRFSTFLSLLEAADLKELLTQPGDWTLFVPTNDAFKGMTSEEKEILIRDKNALQNIILYHLTPGVFIGKGFEPGVTNILKTTQGSKIFLKEVNDTLLVNELKSKESDIMTTNGVIHVVDKLLYPADTPVGNDQLLEILNKLIKYIQIKFVRGSTFKEIPVTVYTTKIITKVVEPKIKVIEGSLQPIIKTEGPTLTKVKIEGEPEFRLIKEGETITEVIHGEPIIKKYTKIIDGVPVEITEKETREERIITGPEIKYTRISTGGGETEETLKKLLQEEVTKVTKFIEGGDGHLFEDEEIKRLLQGDTPVRKLQANKKVQGSRRRLREGRSQ
On to B2, for which the binding entry in test [2] is listed as “binds”.
